This passage reports Switch results from patent US10072023B2, “Diarylethene compounds and uses thereof” (SWITCH MATERIALS, INC., priority 2011, dated 2018).

The series is described as follows: Electrochemical switching (Switch: reversible photochromic/electrochromic conversion). It is filed as physicochemical. On the set-up: key: Y: “Switch” refers to the ability (yes or no) of the compound to be reversibly converted under photochromic and electrochromic conditions between a ring-open isomer and ring-closed isomer. To be noted: reversibly converted under photochromic and electrochromic conditions.
Regarding `CCOCCOCCOCCOC(CC)(CC)c1ccc(-c2sc(-c3ccc(C(C)(C)C)s3)cc2C2=C(c3cc(-c4ccc(C(C)(C)C)s4)sc3-c3ccc(C(CC)(CC)OCCOCCOCCOCC)s3)C(F)(F)C(F)(F)C2(F)F)s1` [S128, 13,13′-(3′,3″″-(perfluorocyclopent-1-ene-1,2-diyl)bis(5″-(tert-butyl)-[2,2′: 5′,2″-terthiophene]-5,3′-diyl))bis(13-ethyl-3,6,9,12-tetraoxapentadecane)], the Switch entry is given as “Y”. Turning to `CC(C)(C)c1ccc(-c2cc(C3=C(c4cc(-c5ccc(C(C)(C)C)s5)sc4-c4ccc(O)cc4)C(F)(F)C(F)(F)C3(F)F)c(-c3ccc(O)cc3)s2)s1` [S105, 4,4′-(4,4″-(perfluorocyclopent-1-ene-1,2-diyl)bis(5′-(tert-butyl)-[2,2′-bithiophene]-5,4-diyl))diphenol], the Switch entry is “Y”. The value for `CC(C)(C)c1ccc(-c2sc(C(C)(C)C)cc2C2=C(c3cc(C(C)(C)C)sc3-c3ccc(C(C)(C)C)s3)C(F)(F)C(F)(F)C2(F)F)s1` [S073, 3,3′-(perfluorocyclopent-1-ene-1,2-diyl)bis(5,5′-di-tert-butyl-2,2′-bithiophene)] was “Y”; that for `FC1(F)C(c2cc(-c3ccccc3)sc2-c2ccccc2)=C(c2cc(-c3cccs3)sc2-c2cccs2)C(F)(F)C1(F)F` [S005, 3′-(2-(2,5-diphenylthiophen-3-yl)-3,3,4,4,5,5-hexafluorocyclopent-1-en-1-yl)-2,2′:5′,2″-terthiophene] was “Y”. As to `COc1ccc2c(C3=C(c4c(-c5ccc(C)s5)oc5cc(OC)ccc45)C(F)(F)C(F)(F)C3(F)F)c(-c3ccc(C)s3)oc2c1` [S144, 3,3′-(perfluorocyclopent-1-ene-1,2-diyl)bis(6-methoxy-2-(5-methylthiophen-2-yl)benzofuran)], the Switch entry is “Y”. Take `COc1ccc(-c2cc(C3=C(c4cc(-c5ccc(OC)cc5)sc4-c4ccc(C#N)cc4)C(F)(F)C(F)(F)C3(F)F)c(-c3ccc(C#N)cc3)s2)cc1` [S086, 4,4′-(3,3′-(perfluorocyclopent-1-ene-1,2-diyl)bis(5-(4-methoxyphenyl)thiophene-3,2-diyl))dibenzonitrile]: the Switch entry was “Y”. Consider `CCOCCOCCOCCOc1ccc2c(C3=C(c4c(-c5ccc(C(C)(C)C)cc5)oc5cc(OCCOCCOCCOCC)ccc45)C(F)(F)C(F)(F)C3(F)F)c(-c3ccc(C(C)(C)C)cc3)oc2c1` [S161, 3,3′-(perfluorocyclopent-1-ene-1,2-diyl)bis(2-(4-(tert-butyl)phenyl)-6-(2-(2-(2-ethoxyethoxy)ethoxy)ethoxy)benzofuran)], for which the Switch entry is “Y”. On to `CCCCCCCCc1ccc(-c2oc3ccccc3c2C2=C(c3c(-c4ccc(CCCCCCCC)cc4)oc4ccccc34)C(F)(F)C(F)(F)C2(F)F)cc1` [S079, 1,2-bis(2-(4-n-octylphenyl)-1-benzofuran-3-yl)perfluorocyclopentene], for which the Switch entry is “Y”.

For the molecule `FC1(F)C(c2nc(-c3ccccc3)sc2-c2ccccc2)=C(c2nc(-c3ccccc3)sc2-c2ccccc2)C(F)(F)C1(F)F` [S035, 4,4′-(perfluorocyclopent-1-ene-1,2-diyl)bis(2,5-diphenylthiazole)], the Switch result is reported as “Y”.

Turning to `COCCOc1ccc(-c2sc(-c3ccc(C(C)(C)C)s3)cc2C2=C(c3cc(-c4ccc(C(C)(C)C)s4)sc3-c3ccc(OCCOC)cc3)C(F)(F)C(F)(F)C2(F)F)cc1` [S104, 4,4″-(perfluorocyclopent-1-ene-1,2-diyl)bis(5′-(tert-butyl)-5-(4-(2-methoxyethoxy)phenyl)-2,2′-bithiophene)], the Switch result is “Y”.

As for `COc1cc2oc(-c3ccc(C(C)(C)C)cc3)c(C3=C(c4c(-c5ccc(C(C)(C)C)cc5)oc5cc(OC)c(OC)cc45)C(F)(F)C(F)(F)C3(F)F)c2cc1OC` [S164, 3,3′-(perfluorocyclopent-1-ene-1,2-diyl)bis(2-(4-(tert-butyl)phenyl)-5,6-dimethoxybenzofuran)], the Switch entry is “Y”. Take `CC(C)(C)c1ccc(-c2cc(C3=C(c4cc(-c5ccc(C(C)(C)C)s5)sc4-c4ccc(C(C)(C)C)s4)C(F)(F)C(F)(F)C3(F)F)c(-c3ccc(C(C)(C)C)s3)s2)s1` [S003, 3′,3″″-(perfluorocyclopent-1-ene-1,2-diyl)bis(5,5″-di-tert-butyl-2,2′:5′,2″-terthiophene)]: the Switch entry is reported as “Y”. Consider `CC(C)(C)c1ccc(-c2cc(C3=C(c4cc(-c5ccc(C(C)(C)C)cc5)sc4-c4ccc(C(C)(C)C)cc4)C(F)(F)C(F)(F)C3(F)F)c(-c3ccc(C(C)(C)C)cc3)s2)cc1` [S042], for which the Switch result is “Y”. The value for `Cc1ccc(-c2ccc(-c3cc(C4=C(c5cc(-c6ccc(-c7ccc(C)s7)s6)sc5-c5ccc(C)s5)C(F)(F)C(F)(F)C4(F)F)c(-c4ccc(C)s4)s3)s2)s1` [S034, 3′,3″″′-(perfluorocyclopent-1-ene-1,2-diyl)bis(5,5″′-dimethyl-2,2′:5′,2″:5″,2″′-quaterthiophene)] was “Y”.

As to `CC(=O)c1ccc(-c2cc(C3=C(c4cc(-c5ccccc5)sc4-c4ccc(C(C)(C)C)cc4)C(F)(F)C(F)(F)C3(F)F)c(-c3ccc(C(C)(C)C)cc3)s2)cc1` [S065, 1-(4-(5-(4-tert-butylphenyl)-4-(2-(2-(4-tert-butylphenyl)-5-phenylthiophen-3-yl)-3,3,4,4,5,5-hexafluorocyclopent-1-enyl)thiophen-2-yl)phenyl)ethanone], the Switch result is given as “Y”. For the molecule `CC(C)(C)c1ccc(-c2sc(-c3ccc(Cl)cc3)cc2C2=C(c3cc(-c4ccc(Cl)cc4)sc3-c3ccc(C(C)(C)C)cc3)C(F)(F)C(F)(F)C2(F)F)cc1` [S060], the Switch entry is “Y”. The value for `COc1ccc(-c2sc(-c3ccc(OCCOc4ccc(N(c5ccc(Cl)cc5)c5ccc(Cl)cc5)cc4)cc3)cc2C2=C(c3cc(-c4ccc(OCCOc5ccc(N(c6ccc(Cl)cc6)c6ccc(Cl)cc6)cc5)cc4)sc3-c3ccc(OC)cc3)C(F)(F)C(F)(F)C2(F)F)cc1` [S090, 4,4′-(((((4,4′-(perfluorocyclopent-1-ene-1,2-diyl)bis(5-(4-methoxyphenyl)thiophene-4,2-diyl))bis(4,1-phenylene))bis(oxy))bis(ethane-2,1-diyl))bis(oxy))bis(N,N-bis(4-chlorophenyl)aniline)] was “Y”. With `COc1ccc(-c2sc(-c3cc4ccccc4s3)cc2C2=C(c3cc(-c4cc5ccccc5s4)sc3-c3ccc(OC)cc3)C(F)(F)C(F)(F)C2(F)F)cc1` [S110, 2,2′-(4,4′-(perfluorocyclopent-1-ene-1,2-diyl)bis(5-(4-methoxyphenyl)thiophene-4,2-diyl))bis(benzo[b]thiophene)], the Switch result is “Y”.

Regarding `COc1ccc(-c2sc(-c3ccc(C#N)cc3)cc2C2=C(c3cc(-c4ccc(C#N)cc4)sc3-c3ccc(OC)cc3)C(F)(F)C(F)(F)C2(F)F)cc1` [S085], the Switch entry was “Y”.

Consider `CCOc1ccc(-c2cc(C3=C(c4cc(-c5ccc(OCC)cc5)sc4-c4ccc(OCC)cc4)C(F)(F)C(F)(F)C3(F)F)c(-c3ccc(OCC)cc3)s2)cc1` [S091, 3,3′-(perfluorocyclopent-1-ene-1,2-diyl)bis(2,5-bis(4-ethoxyphenyl)thiophene)], for which the Switch entry is listed as “Y”.

Take `CC(C)(C)c1ccc(-c2cc(C3=C(c4cc(-c5ccc(C(C)(C)C)s5)sc4-c4ccc(C(=O)O)s4)C(F)(F)C(F)(F)C3(F)F)c(-c3ccc(C(=O)O)s3)s2)s1` [S119]: the Switch entry is “Y”. With `COc1ccc(-c2oc3ccc(OC)cc3c2C2=C(c3c(-c4ccc(OC)cc4)oc4ccc(OC)cc34)C(F)(F)C(F)(F)C2(F)F)cc1` [S083], the Switch entry is listed as “Y”. For the molecule `N#Cc1ccc(-c2ccc(-c3cc(C4=C(c5cc(-c6ccc(-c7ccc(C#N)s7)s6)sc5-c5cccs5)C(F)(F)C(F)(F)C4(F)F)c(-c4cccs4)s3)s2)s1` [S037, 4″,4″″″-(perfluorocyclopent-1-ene-1,2-diyl)bis(([2,2′:5′,2″:5″,2″′-quaterthiophene]-5-carbonitrile))], the Switch result is “Y”. Turning to `CC(C)(C)c1ccc(-c2cc(C3=C(c4cc(-c5ccc(C(C)(C)C)s5)sc4-c4ccc(OCCCO)cc4)C(F)(F)C(F)(F)C3(F)F)c(-c3ccc(OCCCO)cc3)s2)s1` [S111, 3,3′-(4,4′-(4,4′-(perfluorocyclopent-1-ene-1,2-diyl)bis(5′-tert-butyl-2,2′-bithiophene-5,4-diyl))bis(4,1-phenylene)bis(oxy))dipropan-1-ol], the Switch result was “Y”. For `COc1ccc(-c2sc(-c3ccc(/C=C/C=C/c4ccccc4)cc3)cc2C2=C(c3cc(-c4ccc(/C=C/C=C/c5ccccc5)cc4)sc3-c3ccc(OC)cc3)C(F)(F)C(F)(F)C2(F)F)cc1` [S089, 3,3′-(perfluorocyclopent-1-ene-1,2-diyl)bis(2-(4-methoxyphenyl)-5-(4-((1E,3E)-4-phenylbuta-1,3-dien-1-yl)phenyl)thiophene)], the Switch result was “Y”. Regarding `CC(C)(C)c1ccc(-c2cc(C3=C(c4cc(-c5ccc(C(C)(C)C)s5)sc4-c4ccc(OCCCCC(=O)O)cc4)C(F)(F)C(F)(F)C3(F)F)c(-c3ccc(OCCCCC(=O)O)cc3)s2)s1` [S141, 5,5′-(4,4′-(4,4′-(perfluorocyclopent-1-ene-1,2-diyl)bis(5′-tert-butyl-2,2′-bithiophene-5,4-diyl))bis(4,1-phenylene)bis(oxy))dipentanoic acid], the Switch entry is “Y”.
